Patent publication US20150204870A1
No constants are given. Whether binding was seen depends on the method and setting. Some entries that bind do so weakly or less than the wild type.

Assays:
[1] = biological target: T1, podocalyxin (glycoprotein secreted into the culture supernatant of undifferentiated ES/iPS cells) (human) (UniProt O00592); experiment: sandwich ELISA, biotinylated rBC2LCN on streptavidin plate, HRP-labelled detection lectin, A450
T1 sequence (looked up): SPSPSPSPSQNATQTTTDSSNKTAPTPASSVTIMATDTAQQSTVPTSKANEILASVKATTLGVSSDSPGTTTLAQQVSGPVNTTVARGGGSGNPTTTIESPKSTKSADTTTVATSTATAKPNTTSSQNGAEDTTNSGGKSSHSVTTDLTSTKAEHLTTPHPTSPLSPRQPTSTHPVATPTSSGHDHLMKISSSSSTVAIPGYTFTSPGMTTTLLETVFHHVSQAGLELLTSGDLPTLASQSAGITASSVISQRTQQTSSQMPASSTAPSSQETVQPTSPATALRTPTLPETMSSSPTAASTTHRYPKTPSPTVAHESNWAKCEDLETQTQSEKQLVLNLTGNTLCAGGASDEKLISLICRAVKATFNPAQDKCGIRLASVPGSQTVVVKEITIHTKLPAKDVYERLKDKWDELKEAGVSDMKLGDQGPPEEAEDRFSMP

[2] = biological target: T1, podocalyxin (glycoprotein secreted into the culture supernatant of undifferentiated ES/iPS cells) (human); experiment: Cy3-labelled lectin overlay on marker captured from iPS culture supernatant by immobilised rBC2LCN

B1: rXCL (recombinant Xerocomus chrysenteron lectin) (protein)
chain: MGHMSYSITLRVYQTNRDRGYFSIVEKTVWHFANGGTWSEANGAHTLTQGGSGTSGVLRFLSTKGERITVAVGVHNYKRWCDVVTGLKPDETALVINPQYYNNGGRDYVREKQLAEYSVTSAIGTKVEVVYTVAEGNNLEANVIFS
[1]
  binding: binds
[2]
  binding: binds
